Paper doi:10.1101/2023.01.12.523764
These are yes or no findings as the source states them, for the method shown. Binding seen in cells or lysates may run through a third protein. Some results given as binding are weak or reduced against the parent protein; the word gives no strength. For some of these results: Tags and fused reporters may be left off the sequences shown.

By UniProt entry, the sequences of proteins in these tests, tags left out. Where a name states a change or a piece, a line headed by the entry shows the natural chain unless it says otherwise.
UniProt Q96P20: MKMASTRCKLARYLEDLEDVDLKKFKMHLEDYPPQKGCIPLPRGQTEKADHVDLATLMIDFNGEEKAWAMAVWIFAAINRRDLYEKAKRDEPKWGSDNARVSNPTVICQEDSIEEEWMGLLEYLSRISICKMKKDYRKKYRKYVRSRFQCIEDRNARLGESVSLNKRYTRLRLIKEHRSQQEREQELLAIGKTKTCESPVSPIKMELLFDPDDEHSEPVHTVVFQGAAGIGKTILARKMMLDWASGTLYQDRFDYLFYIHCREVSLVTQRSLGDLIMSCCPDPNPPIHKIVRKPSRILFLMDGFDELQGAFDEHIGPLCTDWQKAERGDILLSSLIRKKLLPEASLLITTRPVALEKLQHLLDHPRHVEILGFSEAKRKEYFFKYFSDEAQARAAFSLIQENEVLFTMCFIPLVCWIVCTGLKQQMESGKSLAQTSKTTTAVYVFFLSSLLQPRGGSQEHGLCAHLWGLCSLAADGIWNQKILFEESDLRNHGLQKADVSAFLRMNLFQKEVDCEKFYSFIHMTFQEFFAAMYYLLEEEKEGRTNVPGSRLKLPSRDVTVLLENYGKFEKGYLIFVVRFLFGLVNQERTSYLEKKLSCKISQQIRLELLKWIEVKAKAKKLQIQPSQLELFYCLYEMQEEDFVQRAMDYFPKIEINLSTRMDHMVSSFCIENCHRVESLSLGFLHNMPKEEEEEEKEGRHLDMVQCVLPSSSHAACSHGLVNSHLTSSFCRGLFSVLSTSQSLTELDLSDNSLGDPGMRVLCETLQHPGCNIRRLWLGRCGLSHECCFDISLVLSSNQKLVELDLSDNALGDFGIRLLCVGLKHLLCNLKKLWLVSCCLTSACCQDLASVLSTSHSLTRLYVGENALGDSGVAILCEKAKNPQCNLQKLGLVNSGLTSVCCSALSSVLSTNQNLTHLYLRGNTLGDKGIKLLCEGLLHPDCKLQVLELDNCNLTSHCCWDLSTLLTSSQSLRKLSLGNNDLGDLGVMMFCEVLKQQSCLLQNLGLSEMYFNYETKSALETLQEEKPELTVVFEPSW
UniProt Q9ULZ3: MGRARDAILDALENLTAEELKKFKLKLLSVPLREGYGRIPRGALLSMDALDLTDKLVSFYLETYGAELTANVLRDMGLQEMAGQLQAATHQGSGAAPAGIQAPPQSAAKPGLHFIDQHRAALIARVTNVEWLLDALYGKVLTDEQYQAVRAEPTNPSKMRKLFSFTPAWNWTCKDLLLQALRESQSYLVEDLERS
UniProt P29466: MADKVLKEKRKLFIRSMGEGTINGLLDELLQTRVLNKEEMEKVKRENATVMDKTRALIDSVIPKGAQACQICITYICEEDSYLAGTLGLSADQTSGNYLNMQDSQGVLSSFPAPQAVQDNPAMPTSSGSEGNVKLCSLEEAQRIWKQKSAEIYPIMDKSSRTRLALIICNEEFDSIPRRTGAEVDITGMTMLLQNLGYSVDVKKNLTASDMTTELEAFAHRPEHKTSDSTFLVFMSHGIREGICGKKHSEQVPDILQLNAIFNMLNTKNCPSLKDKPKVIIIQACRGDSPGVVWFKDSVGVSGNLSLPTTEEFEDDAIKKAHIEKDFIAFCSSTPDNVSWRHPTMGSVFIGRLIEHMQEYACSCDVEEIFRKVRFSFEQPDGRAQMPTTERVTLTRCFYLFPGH
UniProt Q7Z434: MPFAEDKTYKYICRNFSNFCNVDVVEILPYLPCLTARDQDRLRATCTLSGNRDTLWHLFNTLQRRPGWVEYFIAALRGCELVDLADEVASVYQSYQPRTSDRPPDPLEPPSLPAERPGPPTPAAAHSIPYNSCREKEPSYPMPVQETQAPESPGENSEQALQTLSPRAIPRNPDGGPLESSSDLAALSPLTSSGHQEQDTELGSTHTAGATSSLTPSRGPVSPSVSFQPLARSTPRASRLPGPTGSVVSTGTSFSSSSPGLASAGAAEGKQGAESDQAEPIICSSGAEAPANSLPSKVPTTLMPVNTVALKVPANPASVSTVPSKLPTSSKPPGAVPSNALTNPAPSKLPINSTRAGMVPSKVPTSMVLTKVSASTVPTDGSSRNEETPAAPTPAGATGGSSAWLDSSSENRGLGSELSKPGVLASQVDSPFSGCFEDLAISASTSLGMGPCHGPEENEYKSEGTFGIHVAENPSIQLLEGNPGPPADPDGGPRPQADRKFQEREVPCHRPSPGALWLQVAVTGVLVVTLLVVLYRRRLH

Tests used:
Experiment in all cases: co-IP
Myc-MARCH5 = biological target: T1, Myc-MARCH5 (UniProt Q9NX47)
T1 sequence: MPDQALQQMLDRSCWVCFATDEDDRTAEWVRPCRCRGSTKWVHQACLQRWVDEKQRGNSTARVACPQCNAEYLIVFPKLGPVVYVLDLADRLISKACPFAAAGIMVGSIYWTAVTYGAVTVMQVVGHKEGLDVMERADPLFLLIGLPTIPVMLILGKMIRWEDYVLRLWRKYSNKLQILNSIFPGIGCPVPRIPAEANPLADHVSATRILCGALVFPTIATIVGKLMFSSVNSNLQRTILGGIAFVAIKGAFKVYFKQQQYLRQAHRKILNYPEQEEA

FLAG-NLRP3 K324R = FLAG-NLRP3 K324R (UniProt Q96P20)
FLAG-NLRP3 K430R = FLAG-NLRP3 K430R (UniProt Q96P20)

Substance	binding (Myc-MARCH5)	binding (FLAG-NLRP3 K324R)	binding (FLAG-NLRP3 K430R)
FLAG-ASC (from UniProt Q9ULZ3 1-195)	binds	–	–
FLAG-pro-caspase-1 (from UniProt P29466 1-404) (enzyme)	no binding	–	–
MAVS co-precipitated with NLRP3 K324R and K430R (Fig EV6C) (from UniProt Q7Z434 1-540)	–	binds	binds
